# Reference: patent US20070087400A1, “Covalent tethering of functional groups to proteins and substrates therefor” (priority 2004, published 2007)
# Some results were stated once for a whole list of compounds, not compound by compound.
# B1: DhaA.WT: wild-type Rhodococcus rhodochrous dehalogenase (DhaA) (protein, UniProt P0A3G2 1-293, looked up)
# Haloalkane dehalogenase: MSEIGTGFPFDPHYVEVLGERMHYVDVGPRDGTPVLFLHGNPTSSYLWRNIIPHVAPSHRCIAPDLIGMGKSDKPDLDYFFDDHVRYLDAFIEALGLEEVVLVIHDWGSALGFHWAKRNPERVKGIACMEFIRPIPTWDEWPEFARETFQAFRTADVGRELIIDQNAFIEGALPKCVVRPLTEVEMDHYREPFLKPVDREPLWRFPNELPIAGEPANIVALVEAYMNWLHQSPVPKLLFWGTPGVLIPPAEAARLAESLPNCKTVDIGPGLHYLQEDNPDLIGSEIARWLPAL
# Assay: Precipitation of DhaA proteins with (NH4)2SO4
# Assay type: physicochemical
# Details: 2 hours, 4° C.
# Protocol: Aliquots of the supernatant obtained from E. coli expressing DhaA (WT or one of the mutants) were treated with increasing concentrations of (NH4)2SO4. The proteins were exposed to each (NH4)2SO4 concentration for 2 hours (4° C.), pelleted by centrifugation, dialyzed overnight against buffer A, and resolved on SDS-PAGE.
molecule,measurement,value
B1,(NH4)2SO4 concentration at which the protein was precipitated,45-70%
